Here are results for three compounds from the supplement of paper PMC8326762, “A Small Molecule Inhibitor of Pex3–Pex19 Interaction Disrupts Glycosome Biogenesis and Causes Lethality in Trypanosoma brucei” (Frontiers in Cell and Developmental Biology, 2021).

Some of the results follow. This is a noisy data set.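 Yeast growth was measured as optical density at 600 nm. Two-hybrid strains grew without histidine, so growth depended on Pex3–Pex19 binding. A compound was trypanosome-selective if it reduced growth of the trypanosome-pair strain by over 65% and of the human-pair strain by under 65%.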

The subject of assay [1] is Saccharomyces cerevisiae HF7c pdr5Δ. As to the kind of experiment: general growth inhibition of yeast HF7c pdr5Δ in -Leu -Trp medium, relative to DMSO; higher = stronger general growth inhibition. To be noted: 100 µM; 24 h.
Assay [2] concerns human PEX3-PEX19 interaction (yeast two-hybrid). As to the kind of experiment: growth inhibition of yeast two-hybrid strain reporting HsPex3-HsPex19 interaction, relative to DMSO; higher = stronger inhibition of human Pex3-Pex19 interaction / growth. The note with it: 100 µM; 24 h; 3-aminotriazole 10 mM.
Assay [3] concerns T. brucei Pex3-Pex19 interaction (yeast two-hybrid). Nature of the assay: growth inhibition of yeast two-hybrid strain reporting TbPex3-TbPex19 interaction, relative to DMSO; higher = stronger inhibition of T. brucei Pex3-Pex19 interaction / growth. To be noted: 100 µM; 24 h.

`CSC(=N)N` [S-Methylisothiourea hemisulfate]: the general growth inhibition in assay [1] worked out at 53.9%. For the same compound, the growth inhibition in assay [2] was 44.6%; in assay [3], 65.3%.
On the same counts, the results for `FC(F)(F)c1ccccc1-n1ccnc1` [1-[2-(Trifluoromethyl)phenyl]imidazole] are 14.1%, 12.3% and 37.3%.
On the same counts, the results for `CC(C)(C)c1cc(/C=C(\C#N)C(N)=S)cc(C(C)(C)C)c1O` [Tyrphostin AG 879] are 42.4%, 22.5% and 41.5%.
